Experimental data taken from patent US20200016266A1.
Positions count from the first letter of the chain named. No constants are given. Whether binding was seen depends on the method and setting. Values belong to the binder of their own block, whether it stands above or below them.

How the values were obtained:
Test in all cases: PEPperMAP conformational epitope mapping peptide array, fluorescence intensity [a.u.]
[1] = biological target: T1, FDGSGSG
T1 sequence (peptide): FDGSGSG

[2] = biological target: T2, GDANTIV
T2 sequence (peptide): GDANTIV

[3] = biological target: T3, GSGSGSG
T3 sequence (peptide): GSGSGSG

[4] = biological target: T4, GYEFKFP
T4 sequence (peptide): GYEFKFP

[5] = biological target: T5, KDGGAWG
T5 sequence (peptide): KDGGAWG

[6] = biological target: T6, LHFNPRF
T6 sequence (peptide): LHFNPRF

[7] = biological target: T7, NLEAINY
T7 sequence (peptide): NLEAINY

[8] = biological target: T8, QANLTVK
T8 sequence (peptide): QANLTVK

[9] = biological target: T9, REAVFPF
T9 sequence (peptide): REAVFPF

[10] = biological target: T10, SVAEVCI
T10 sequence (peptide): SVAEVCI

[11] = biological target: T11, …
T11 sequence (peptide): CNSKDGGAWG

[12] = biological target: T12, …; remark: listed apart in the source
T12 sequence (peptide): CNSKDGGAWGTEQ

[13] = biological target: T13, …; remark: listed apart in the source
T13 sequence (peptide): CVAFDGSGSG

[14] = biological target: T14, …; remark: listed apart in the source
T14 sequence (peptide): FVLNLGKDSN

[15] = biological target: T15, …; remark: listed apart in the source
T15 sequence (peptide): FVLNLGKDSNNLC

[16] = biological target: T16, …; remark: listed apart in the source
T16 sequence (peptide): LPDGYEFKFP

[17] = biological target: T17, …; remark: listed apart in the source
T17 sequence (peptide): MACGLVASNL

[18] = biological target: T18, …; remark: listed apart in the source
T18 sequence (peptide): MACGLVASNLNLK

[19] = biological target: T19, …; remark: listed apart in the source
T19 sequence (peptide): NAHGDANTIV

[20] = biological target: T20, …; remark: listed apart in the source
T20 sequence (peptide): NAHGDANTIVCNS

[21] = biological target: T21, …; remark: listed apart in the source
T21 sequence (peptide): NLCLHFNPRF

[22] = biological target: T22, …; remark: listed apart in the source
T22 sequence (peptide): NLCLHFNPRFNAH

[23] = biological target: T23, …; remark: listed apart in the source
T23 sequence (peptide): NLKPGECLRV

[24] = biological target: T24, …; remark: listed apart in the source
T24 sequence (peptide): NLKPGECLRVRGE

[25] = biological target: T25, …; remark: listed apart in the source
T25 sequence (peptide): NRLNLEAINY

[26] = biological target: T26, …; remark: listed apart in the source
T26 sequence (peptide): QPGSVAEVCI

[27] = biological target: T27, …; remark: listed apart in the source
T27 sequence (peptide): RGEVAPDAKS

[28] = biological target: T28, …; remark: listed apart in the source
T28 sequence (peptide): RGEVAPDAKSFVL

[29] = biological target: T29, …; remark: listed apart in the source
T29 sequence (peptide): TEQREAVFPF

[30] = biological target: T30, …; remark: listed apart in the source
T30 sequence (peptide): TEQREAVFPFQPG

[31] = biological target: T31, …; remark: listed apart in the source
T31 sequence (peptide): TFDQANLTVK

binding [1]: no binding (tested: 10 µg/ml) | binding [2]: no binding (tested: 10 µg/ml) | binding [3]: no binding (tested: 10 µg/ml) | binding [4]: no binding (tested: 10 µg/ml) | binding [5]: no binding (tested: 10 µg/ml) | binding [6]: no binding (tested: 10 µg/ml) | binding [7]: no binding (tested: 10 µg/ml) | binding [8]: no binding (tested: 10 µg/ml) | binding [9]: no binding (tested: 10 µg/ml) | binding [10]: no binding (tested: 10 µg/ml) | binding [11]: no binding (tested: 10 µg/ml) | binding [12]: no binding (tested: 10 µg/ml) | binding [13]: no binding (tested: 10 µg/ml) | binding [14]: no binding (tested: 10 µg/ml) | binding [15]: no binding (tested: 10 µg/ml) | binding [16]: no binding (tested: 10 µg/ml) | binding [17]: no binding (tested: 10 µg/ml) | binding [18]: no binding (tested: 10 µg/ml) | binding [19]: no binding (tested: 10 µg/ml) | binding [20]: no binding (tested: 10 µg/ml) | binding [21]: no binding (tested: 10 µg/ml) | binding [22]: no binding (tested: 10 µg/ml) | binding [23]: no binding (tested: 10 µg/ml) | binding [24]: no binding (tested: 10 µg/ml) | binding [25]: no binding (tested: 10 µg/ml) | binding [26]: no binding (tested: 10 µg/ml) | binding [27]: no binding (tested: 10 µg/ml) | binding [28]: no binding (tested: 10 µg/ml) | binding [29]: no binding (tested: 10 µg/ml) | binding [30]: no binding (tested: 10 µg/ml) | binding [31]: no binding (tested: 10 µg/ml)
B1: anti-Gal1 Clone 21, fully human monoclonal antibody (antibody, V domains shown)
VH: EVQLLESGGGLVQPGGSLRLSCAASGFTFSSYAMSWVRQAPGKGLEWVSEIGRVGVNTLYADSVKGRFTISRDNSKNTLYLQMNSLRAEDTAVYYCAKKATQFDYWGQGTLVTVSS
VL: DIQMTQSPSSLSASVGDRVTITCRASQSISSYLNWYQQKPGKAPKLLIYRASRLQSGVPSRFSGSGSGTDFTLTISSLQPEDFATYYCQQTIGPPDTFGQGTKVEIKR

binding [1]: no binding (tested: 10 µg/ml) | binding [2]: no binding (tested: 10 µg/ml) | binding [3]: no binding (tested: 10 µg/ml) | binding [4]: no binding (tested: 10 µg/ml) | binding [5]: no binding (tested: 10 µg/ml) | binding [6]: no binding (tested: 10 µg/ml) | binding [7]: no binding (tested: 10 µg/ml) | binding [8]: no binding (tested: 10 µg/ml) | binding [9]: no binding (tested: 10 µg/ml) | binding [10]: no binding (tested: 10 µg/ml) | binding [11]: no binding (tested: 10 µg/ml) | binding [12]: no binding (tested: 10 µg/ml) | binding [13]: no binding (tested: 10 µg/ml) | binding [14]: no binding (tested: 10 µg/ml) | binding [15]: no binding (tested: 10 µg/ml) | binding [16]: no binding (tested: 10 µg/ml) | binding [17]: no binding (tested: 10 µg/ml) | binding [18]: no binding (tested: 10 µg/ml) | binding [19]: no binding (tested: 10 µg/ml) | binding [20]: no binding (tested: 10 µg/ml) | binding [21]: no binding (tested: 10 µg/ml) | binding [22]: no binding (tested: 10 µg/ml) | binding [23]: no binding (tested: 10 µg/ml) | binding [24]: no binding (tested: 10 µg/ml) | binding [25]: no binding (tested: 10 µg/ml) | binding [26]: no binding (tested: 10 µg/ml) | binding [27]: no binding (tested: 10 µg/ml) | binding [28]: no binding (tested: 10 µg/ml) | binding [29]: no binding (tested: 10 µg/ml) | binding [30]: no binding (tested: 10 µg/ml) | binding [31]: no binding (tested: 10 µg/ml)
B2: anti-Gal1 Clone 42, fully human monoclonal antibody (antibody, V domains shown)
VH: EVQLLESGGGLVQPGGSLRLSCAASGFTFSSYAMSWVRQAPGKGLEWVSGISGSGDYTSYADSVKGRFTISRDNSKNTLYLQMNSLRAEDTAVYYCAKGYGAFDYWGQGTLVTVSS
VL: B1 VL with R50G, R53W, T91S, I92A, G93N, P94Y, D96S
